Results published in publication PMC12564946 (Marine Drugs, 2025).

Assay: peptide made by a vendor
Settings: whole synthesis

Substance | purity (crude or final not stated) [%]
PEPTIDE1{Q.L.N.W.D}$$$$V2.0 | 98.46
FITC-labeled QLNWD | 98.56

HELM strings list residues between dots; [ac] is acetyl, [am] amide, other brackets name non-standard units.
